Article PMC11822393
Results are given in words; binding and its absence hold for the method and conditions named. A result given as binding can be weak or reduced; the word gives no strength.

Target: T1, AtPUB19 (Arabidopsis thaliana) (UniProt O80742)
T1 sequence: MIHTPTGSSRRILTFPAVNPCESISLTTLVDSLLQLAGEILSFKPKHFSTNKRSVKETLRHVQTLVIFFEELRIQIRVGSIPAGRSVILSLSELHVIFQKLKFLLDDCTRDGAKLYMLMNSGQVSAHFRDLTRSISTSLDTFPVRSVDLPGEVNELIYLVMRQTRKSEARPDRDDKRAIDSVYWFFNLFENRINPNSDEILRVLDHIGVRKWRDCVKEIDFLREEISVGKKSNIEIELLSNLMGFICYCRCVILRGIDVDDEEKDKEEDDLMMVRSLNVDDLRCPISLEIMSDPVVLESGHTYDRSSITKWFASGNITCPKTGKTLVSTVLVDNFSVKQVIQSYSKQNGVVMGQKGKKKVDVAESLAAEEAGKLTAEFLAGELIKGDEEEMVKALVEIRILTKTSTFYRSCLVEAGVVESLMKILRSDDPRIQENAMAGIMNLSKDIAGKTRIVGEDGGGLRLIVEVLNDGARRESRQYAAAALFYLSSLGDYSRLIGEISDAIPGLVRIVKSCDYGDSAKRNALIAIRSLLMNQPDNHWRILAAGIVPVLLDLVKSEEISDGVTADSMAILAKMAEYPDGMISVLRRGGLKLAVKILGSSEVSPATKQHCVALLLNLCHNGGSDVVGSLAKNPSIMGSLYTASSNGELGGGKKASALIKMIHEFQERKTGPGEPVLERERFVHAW
Assay: two-hybrid; AtPUB19 against AtICE1, AtICE2, AtCBF1 and AtCBF2 (Supplemental Fig. S6); the method is not named in the sentences, which stand among the Y2H results; vectors not told

binding: binds
Substance: AtICE2 (Arabidopsis thaliana)
